The results in this text go back to the supplement of paper PMC3682954.

The assay has as its system RAW 264.7. The experiment in a line: HMGB1-induced TNF-alpha production relative to HMGB1-stimulated control; higher = more TNF-alpha secretion (less inhibition). The conditions noted are these: stimulus: HMGB1 5 ug/ml, 18 h.
Where [1] appears, read: compound concentration: 1 ug/ml.

Counter-ions that a name gives are not always drawn. ± gives the standard deviation of the averaged measurements. Some of the results follow. Most values come without repeats; read them as rough.

For `CC1(C)[C@@H](O)CC[C@]2(C)[C@H]3C(=O)C=C4[C@@H]5C[C@@](C)(C(=O)O)CC[C@]5(C)CC[C@@]4(C)[C@]3(C)CC[C@@H]12` [Enoxolone], the “HMGB1-induced TNF-alpha production” value under setting [1] amounted to 46%. For the molecule `CC1(C)[C@@H](O)CC[C@]2(C)[C@H]3C(=O)C=C4[C@@H]5C[C@@](C)(C(=O)O)CC[C@]5(C)CC[C@@]4(C)[C@]3(C)CC[C@@H]12`, the “HMGB1-induced TNF-alpha production” value (compound concentration: 3 uM) was found to be 77.1%. Regarding `Oc1cc(O)c2c(c1)O[C@H](c1ccc(O)c(O)c1)[C@@H](O)C2` (racemic) [Catechin-(+,-) hydrate], the “HMGB1-induced TNF-alpha production” value (compound concentration: 3 uM) amounted to 111%. `CCCNC(C)C(=O)Nc1c(C)csc1C(=O)OC` (centres undefined) [Articaine hydrochloride]: for the setting “compound concentration: 3 uM”, the “HMGB1-induced TNF-alpha production” value was 109%. Same read-out and setting: next, `NCCc1cc[nH]n1` [Betazole hydrochloride]: 62.8%; `COc1cccc(N(C)C(=S)Oc2ccc3c(c2)CCCC3)n1` [Liranaftate]: 104%; `Cc1c(NC(C)C)c(=O)n(-c2ccccc2)n1C`: 69.2%. The same measure, in the same setting: the same measure for `Cc1c(NC(C)C)c(=O)n(-c2ccccc2)n1C` [Isopyrin hydrochloride]: 114%; for `COc1cc(/C=C(\C#N)C(=O)c2ccc(O)c(O)c2)cc(I)c1O` [I-OMe-Tyrphostin AG 538]: 109%.

`CC(=O)Oc1cc(OC(C)=O)c2c(=O)cc(-c3ccc(OC(C)=O)c(OC(C)=O)c3)oc2c1`: under setting [1], the “HMGB1-induced TNF-alpha production” value amounted to 79.7%. Consider `N[C@@H](Cc1c[nH]cn1)C(=O)O` [L-Histidine hydrochloride], for which the “HMGB1-induced TNF-alpha production” value (compound concentration: 3 uM) was determined as 84.7%. Regarding `NCCC(O)(P(=O)(O)O)P(=O)(O)O` [Pamidronic acid], the “HMGB1-induced TNF-alpha production” value (compound concentration: 3 uM) was 87.9%. The same measure, in the same setting: next, `CC(C[N+](C)(C)C)OC(N)=O` (stereo not drawn) [Carbamyl-beta-methylcholine]: 106%; `CC(C[N+](C)(C)C)OC(N)=O` (centres undefined) [Bethanechol chloride]: 109 ± 21%.

As for `CC(C[N+](C)(C)C)OC(N)=O` (centres undefined), the “HMGB1-induced TNF-alpha production” value (compound concentration: 3 uM) came to 73.8%.

`NC(Cc1cnc[nH]1)C(=O)NC(CO)C(=O)O` (centres undefined): under setting [1], the “HMGB1-induced TNF-alpha production” value was determined as 65.6%. As for `CCCCCCCCCCOc1cc2c(O)c(C(=O)OCC)cnc2cc1OCC`, for the setting “compound concentration: 3 uM”, the “HMGB1-induced TNF-alpha production” value is 91.9%.

`COc1ccc2c(c1)C(=O)N(CCc1ccc(S(=O)(=O)NC(=O)NC3CCCCC3)cc1)C(=O)C2(C)C` [Gliquidone]: the “HMGB1-induced TNF-alpha production” value (compound concentration: 3 uM) was 55.6%. As to `CC(C)[C@@H](C)/C=C/[C@@H](C)[C@H]1CC[C@H]2/C(=C/C=C3\C[C@@H](O)CC[C@@H]3C)CCC[C@]12C` [dihydrotachysterol], the “HMGB1-induced TNF-alpha production” value under setting [1] turned out to be 68.9%. As for `NS(=O)(=O)Cc1noc2ccccc12` [Zonisamide], the “HMGB1-induced TNF-alpha production” value (compound concentration: 3 uM) stood at 116 ± 20%. On the same count and under the same terms, the same measure for `CN(C)CCN(Cc1ccc(Cl)cc1)c1ccccn1`: 76.3%. The same measure, in the same setting: the same measure for `CN(C)CCN(Cc1ccc(Cl)cc1)c1ccccn1` [Chloropyramine hydrochloride]: 126%. On the same count and under the same terms, the same measure for `COc1ccc([C@@H]2Sc3ccccc3N(CCN(C)C)C(=O)[C@@H]2OC(C)=O)cc1`: 91.1%; for `COc1ccc([C@@H]2Sc3ccccc3N(CCN(C)C)C(=O)[C@@H]2OC(C)=O)cc1` [Diltiazem hydrochloride]: 84.8 ± 7.6%.

For the molecule `COc1ccc([C@@H]2Sc3ccccc3N(CCN(C)C)C(=O)[C@@H]2OC(C)=O)cc1` [Diltiazem], for the setting “compound concentration: 3 uM”, the “HMGB1-induced TNF-alpha production” value turned out to be 81.9%. Same read-out and setting: next, `Cc1cn([C@H]2C[C@H](N=[N+]=[N-])[C@@H](CO)O2)c(=O)[nH]c1=O` [Zidovudine, AZT]: 76.6%; `Cc1cn([C@H]2C[C@H](N=[N+]=[N-])[C@@H](CO)O2)c(=O)[nH]c1=O` [3'-Azido-3'-deoxythymidine]: 87.6 ± 14%; `Cc1cn([C@H]2C[C@H](N=[N+]=[N-])[C@@H](CO)O2)c(=O)[nH]c1=O`: 93.4%.

For `O=C1Nc2ccc(I)cc2/C1=C/c1cc(Br)c(O)c(Br)c1`, under “compound concentration: 3 uM”, the “HMGB1-induced TNF-alpha production” value was 72.1%.

Turning to `O=C1N=C(O)NC1(c1ccccc1)c1ccccc1` [Phenytoin sodium], the “HMGB1-induced TNF-alpha production” value (compound concentration: 3 uM) came out at 88.7%. The same measure, in the same setting: next, `O=C1N=C(O)NC1(c1ccccc1)c1ccccc1`: 97.2%. On the same count and under the same terms, the same measure for `COc1cc(NS(=O)(=O)c2ccc(N)cc2)nc(OC)n1` [Sulfadimethoxine]: 92.5 ± 2.3%; for `COc1cc(NS(=O)(=O)c2ccc(N)cc2)nc(OC)n1`: 93.3%; for `C=N[C@@H](C(=O)N[C@@H]1C(=O)N2[C@@H]1SC(C)(C)[C@@H]2C(=O)O)c1ccccc1` [Metampicillin sodium salt]: 105%. As for `CC[N+](CC)(CC(=O)Nc1c(C)cccc1C)Cc1ccccc1` [Denatonium benzoate], the “HMGB1-induced TNF-alpha production” value (compound concentration: 3 uM) came out at 68%.

With `CC[N+](CC)(CC(=O)Nc1c(C)cccc1C)Cc1ccccc1`, the “HMGB1-induced TNF-alpha production” value (compound concentration: 3 uM) is 97.7%.

Consider `CC1(C)O[C@@H]2[C@@H](CO[C@@]3(COS(N)(=O)=O)OC(C)(C)O[C@@H]23)O1`, for which, under “compound concentration: 3 uM”, the “HMGB1-induced TNF-alpha production” value was determined as 89.7 ± 13%.

For `CC1(C)O[C@@H]2[C@@H](CO[C@@]3(COS(N)(=O)=O)OC(C)(C)O[C@@H]23)O1` [Topiramate], the “HMGB1-induced TNF-alpha production” value (compound concentration: 3 uM) was determined as 127%. As to `COc1cc2ccc(=O)oc2cc1O` [Scopoletin], under setting [1], the “HMGB1-induced TNF-alpha production” value amounted to 58.3%.
